No constants are given. Whether binding was seen depends on the method and setting. Binding seen in cells or lysates may run through a third protein. For some of these results: Binding calls can cover weak binding; strength is not graded here. Tags and fused reporters may be left off the sequences shown.
Columns and labels:
Assay in all cases: co-IP
PPM1G-Flag = biological target: T1, PPM1G-Flag (UniProt O15355)
T1 sequence: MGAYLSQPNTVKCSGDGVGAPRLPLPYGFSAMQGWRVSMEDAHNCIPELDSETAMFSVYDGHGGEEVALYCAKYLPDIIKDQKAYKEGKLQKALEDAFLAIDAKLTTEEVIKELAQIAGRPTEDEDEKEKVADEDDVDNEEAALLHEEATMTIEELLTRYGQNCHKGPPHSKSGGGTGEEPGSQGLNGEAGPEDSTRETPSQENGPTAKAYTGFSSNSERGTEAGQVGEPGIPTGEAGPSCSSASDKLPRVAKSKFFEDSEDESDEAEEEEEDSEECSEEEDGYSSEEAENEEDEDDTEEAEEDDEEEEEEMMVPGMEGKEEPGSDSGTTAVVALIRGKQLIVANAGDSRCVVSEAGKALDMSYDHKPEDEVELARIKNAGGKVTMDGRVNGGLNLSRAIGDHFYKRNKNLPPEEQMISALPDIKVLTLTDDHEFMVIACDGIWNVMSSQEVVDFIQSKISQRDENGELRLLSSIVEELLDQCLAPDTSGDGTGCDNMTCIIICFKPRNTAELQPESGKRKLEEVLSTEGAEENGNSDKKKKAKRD

PPM1G-Δ258-322-Flag = biological target: T2, PPM1G-Δ258-322-Flag (UniProt O15355)
T2 sequence: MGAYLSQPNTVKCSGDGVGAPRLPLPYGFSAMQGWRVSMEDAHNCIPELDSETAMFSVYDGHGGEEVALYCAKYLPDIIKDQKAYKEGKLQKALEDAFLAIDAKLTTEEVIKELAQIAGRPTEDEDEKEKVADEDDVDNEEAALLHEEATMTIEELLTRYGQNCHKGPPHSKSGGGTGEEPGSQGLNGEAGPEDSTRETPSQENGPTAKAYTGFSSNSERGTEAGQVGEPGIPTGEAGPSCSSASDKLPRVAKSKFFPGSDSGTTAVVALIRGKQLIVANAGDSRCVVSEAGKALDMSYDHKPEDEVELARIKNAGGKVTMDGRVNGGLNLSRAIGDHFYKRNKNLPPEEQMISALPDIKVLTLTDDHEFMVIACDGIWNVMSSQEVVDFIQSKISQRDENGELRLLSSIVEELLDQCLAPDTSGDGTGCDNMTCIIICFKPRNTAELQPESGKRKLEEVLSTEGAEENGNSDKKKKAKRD

PPM1K-Flag = biological target: T3, PPM1K-Flag (UniProt Q8N3J5)
T3 sequence: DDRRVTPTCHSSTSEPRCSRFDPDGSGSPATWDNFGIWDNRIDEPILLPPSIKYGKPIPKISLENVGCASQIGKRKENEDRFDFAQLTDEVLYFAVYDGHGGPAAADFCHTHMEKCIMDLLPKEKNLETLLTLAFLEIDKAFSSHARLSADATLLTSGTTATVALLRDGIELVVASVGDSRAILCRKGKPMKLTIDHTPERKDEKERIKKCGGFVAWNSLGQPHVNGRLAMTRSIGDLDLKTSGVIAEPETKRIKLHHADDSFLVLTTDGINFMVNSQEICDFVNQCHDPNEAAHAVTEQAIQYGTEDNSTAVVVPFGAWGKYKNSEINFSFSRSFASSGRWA

ATG7-Flag = biological target: T4, ATG7-Flag (UniProt O95352)
T4 sequence: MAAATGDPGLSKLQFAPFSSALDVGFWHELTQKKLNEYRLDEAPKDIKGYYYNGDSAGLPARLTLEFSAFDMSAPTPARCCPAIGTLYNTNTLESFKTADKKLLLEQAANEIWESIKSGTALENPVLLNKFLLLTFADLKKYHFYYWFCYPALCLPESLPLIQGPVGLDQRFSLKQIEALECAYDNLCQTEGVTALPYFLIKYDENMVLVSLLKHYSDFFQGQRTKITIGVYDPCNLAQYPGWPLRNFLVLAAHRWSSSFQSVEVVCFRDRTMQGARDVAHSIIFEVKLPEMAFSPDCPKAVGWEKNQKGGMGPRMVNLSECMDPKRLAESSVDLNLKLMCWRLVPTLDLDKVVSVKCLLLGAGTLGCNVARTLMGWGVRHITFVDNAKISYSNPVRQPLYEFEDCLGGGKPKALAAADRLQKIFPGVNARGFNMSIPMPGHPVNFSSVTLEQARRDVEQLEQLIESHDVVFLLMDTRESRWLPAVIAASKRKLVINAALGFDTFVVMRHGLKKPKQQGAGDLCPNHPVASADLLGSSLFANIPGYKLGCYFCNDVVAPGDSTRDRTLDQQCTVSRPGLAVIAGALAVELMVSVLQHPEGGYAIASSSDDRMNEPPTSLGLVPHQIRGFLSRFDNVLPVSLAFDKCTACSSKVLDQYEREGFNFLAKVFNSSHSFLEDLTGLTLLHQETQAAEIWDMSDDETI

IBV/Yamagata PB1-HA (influenza B virus (IBV/Yamagata))
binding (PPM1G-Flag): binds

IBV/Yamagata PB1-His (influenza B virus (IBV/Yamagata))
binding (PPM1G-Δ258-322-Flag): no binding | binding (PPM1G-Flag): binds

IBV/Yamagata PB2-HA (influenza B virus (IBV/Yamagata))
binding (PPM1G-Flag): binds

IBV/Yamagata PB2-His (influenza B virus (IBV/Yamagata))
binding (PPM1G-Δ258-322-Flag): no binding | binding (PPM1G-Flag): binds

IBV/Yamagata-NP-His (influenza B virus (IBV/Yamagata))
binding (PPM1K-Flag): no binding | binding (PPM1G-Δ258-322-Flag): no binding | binding (ATG7-Flag): binds | binding (PPM1G-Flag): binds

Source: publication doi:10.1101/2025.09.18.676991
